No constants are given. Whether binding was seen depends on the method and setting. Some entries that bind do so weakly or less than the wild type. For some of these results: Sequences can lack the tags named with a protein.

For assay [1], the target named is Pex1-Strep/His-Pex6 D2 pore-loop mutant (Pex1-F771A, Pex6-Y805A) (S. cerevisiae) (UniProt P24004+P33760). Nature of the assay: pull-down; Pex1-Strep/His-Pex6 (1.2 μM) held on MagStrep magnetic beads, 21 μM Pex15 1-327-FLAG-His, ATP regeneration mix; washes in 60 mM HEPES pH 7.6, 150 mM NaCl, 150 mM KCl, 10% glycerol, 0.05% Tween-20, 10 mM MgCl2, 0.5 mM EDTA, 1 mM ATP; eluted with 2 mM biotin; both purified.

Assay [2] has as its target Pex1-Strep/His-Pex6 hexamer, wild type (S. cerevisiae) (UniProt P24004+P33760). Described as above.
Assay [3] deals with T1, His-Pex6 (S. cerevisiae) (UniProt P33760).
T1 sequence: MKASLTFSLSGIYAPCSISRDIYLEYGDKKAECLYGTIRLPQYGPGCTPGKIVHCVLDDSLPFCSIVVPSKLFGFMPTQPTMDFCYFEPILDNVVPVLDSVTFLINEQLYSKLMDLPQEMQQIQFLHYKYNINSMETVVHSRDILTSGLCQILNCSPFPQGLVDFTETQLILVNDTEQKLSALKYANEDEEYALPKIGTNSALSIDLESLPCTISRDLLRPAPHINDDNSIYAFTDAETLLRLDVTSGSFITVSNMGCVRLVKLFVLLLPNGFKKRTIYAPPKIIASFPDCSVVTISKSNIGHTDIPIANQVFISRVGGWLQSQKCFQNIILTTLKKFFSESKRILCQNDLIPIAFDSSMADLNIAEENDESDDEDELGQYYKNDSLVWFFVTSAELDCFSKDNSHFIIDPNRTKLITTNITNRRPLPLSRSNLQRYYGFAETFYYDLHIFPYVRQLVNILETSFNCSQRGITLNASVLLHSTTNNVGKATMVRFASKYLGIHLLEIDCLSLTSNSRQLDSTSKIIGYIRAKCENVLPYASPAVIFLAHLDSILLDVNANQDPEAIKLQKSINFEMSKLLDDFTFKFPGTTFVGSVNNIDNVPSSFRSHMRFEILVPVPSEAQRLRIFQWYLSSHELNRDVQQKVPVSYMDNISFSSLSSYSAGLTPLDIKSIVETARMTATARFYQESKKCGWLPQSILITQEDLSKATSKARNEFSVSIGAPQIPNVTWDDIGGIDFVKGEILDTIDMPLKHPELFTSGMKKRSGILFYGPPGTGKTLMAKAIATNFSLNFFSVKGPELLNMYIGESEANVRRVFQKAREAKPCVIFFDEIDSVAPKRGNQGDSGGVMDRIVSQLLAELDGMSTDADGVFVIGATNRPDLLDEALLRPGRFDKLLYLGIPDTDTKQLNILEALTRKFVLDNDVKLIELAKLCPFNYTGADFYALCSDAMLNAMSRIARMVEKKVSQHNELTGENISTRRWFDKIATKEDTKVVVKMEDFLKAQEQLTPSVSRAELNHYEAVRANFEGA
Nature of the assay: negative-stain EM reconstruction; 20 nM Pex1-FLAG/His-Pex6 mixed with 200 nM Pex15, 5 min on ice, 5 mM ATP; 3D reconstruction at 23.2 Å; both purified.

In assay [4] the target is Pex1-FLAG/His-Pex6 hexamer, wild type (S. cerevisiae) (UniProt P24004+P33760). The description is as above.
Assay [5] addresses Pex1-WB2/Pex6-WB2 hexamer (Pex1-Strep E798Q / His-Pex6 E832Q) (S. cerevisiae) (UniProt P24004+P33760). Nature of the assay: HDX-MS; 60 μM Pex15 incubated with 2 μM Pex1-WB2/Pex6-WB2 hexamer for 1 min, diluted into D2O buffer (60 mM HEPES pD 7.6, 50 mM NaCl, 50 mM KCl, 10% glycerol, 10 mM MgCl2, 0.5 mM EDTA, 5 mM ATP); exchange with 3 μM Pex15 1-309 and 100 nM Pex1/Pex6, quenched after 15 or 600 s; both purified.

The target of assay [6] is T2, MBP-Pex15 1-327-FLAG-His (S. cerevisiae) (UniProt Q08215).
T2 sequence: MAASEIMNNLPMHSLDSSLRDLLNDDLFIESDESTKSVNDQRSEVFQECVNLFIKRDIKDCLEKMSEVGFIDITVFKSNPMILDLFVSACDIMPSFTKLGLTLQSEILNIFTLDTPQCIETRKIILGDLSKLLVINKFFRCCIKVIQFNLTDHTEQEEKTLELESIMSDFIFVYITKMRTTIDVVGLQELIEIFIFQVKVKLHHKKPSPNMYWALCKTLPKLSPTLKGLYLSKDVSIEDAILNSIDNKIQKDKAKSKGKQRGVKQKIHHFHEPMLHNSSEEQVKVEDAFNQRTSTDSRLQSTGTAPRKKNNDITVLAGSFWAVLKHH
Put plainly: pull-down; 1 uM MBP-Pex15 1-327-FLAG-His on magnetic amylose resin with 0.5 uM Pex1-Strep/His-Pex6 hexamer, His-Pex1-FLAG, His-Pex6-FLAG or 5 uM His-Pex6 1-215; 1 h, 4 °C, 60 mM HEPES pH 7.6, 150 mM NaCl, 150 mM KCl, 10% glycerol, 0.05% Tween-20, 10 mM MgCl2, 0.5 mM EDTA, 5 mM ATP; maltose elution; SYPRO-Ruby or anti-His blot; both purified.

For assay [7], the target named is T1, His-Pex6 (S. cerevisiae). Put plainly: tandem affinity co-purification (Ni-NTA, anti-FLAG) + SEC; Pex1-FLAG and His-Pex6 co-expressed in E. coli; Ni-NTA by His-Pex6, then anti-FLAG resin by Pex1-FLAG, with 1 mM ATP; hexamer separated on Superose6.

B1: Pex15 1-327-FLAG-His (domain or fragment, UniProt Q08215 1-327)
chain: MAASEIMNNLPMHSLDSSLRDLLNDDLFIESDESTKSVNDQRSEVFQECVNLFIKRDIKDCLEKMSEVGFIDITVFKSNPMILDLFVSACDIMPSFTKLGLTLQSEILNIFTLDTPQCIETRKIILGDLSKLLVINKFFRCCIKVIQFNLTDHTEQEEKTLELESIMSDFIFVYITKMRTTIDVVGLQELIEIFIFQVKVKLHHKKPSPNMYWALCKTLPKLSPTLKGLYLSKDVSIEDAILNSIDNKIQKDKAKSKGKQRGVKQKIHHFHEPMLHNSSEEQVKVEDAFNQRTSTDSRLQSTGTAPRKKNNDITVLAGSFWAVLKHH
As for B1, the binding entry in assay [1] and in assay [2] was “binds” each time.

B2: Pex15 cytosolic domain (aa 1-327), as used for negative-stain EM (domain or fragment, S. cerevisiae, UniProt Q08215 1-327, looked up)
chain: MAASEIMNNLPMHSLDSSLRDLLNDDLFIESDESTKSVNDQRSEVFQECVNLFIKRDIKDCLEKMSEVGFIDITVFKSNPMILDLFVSACDIMPSFTKLGLTLQSEILNIFTLDTPQCIETRKIILGDLSKLLVINKFFRCCIKVIQFNLTDHTEQEEKTLELESIMSDFIFVYITKMRTTIDVVGLQELIEIFIFQVKVKLHHKKPSPNMYWALCKTLPKLSPTLKGLYLSKDVSIEDAILNSIDNKIQKDKAKSKGKQRGVKQKIHHFHEPMLHNSSEEQVKVEDAFNQRTSTDSRLQSTGTAPRKKNNDITVLAGSFWAVLKHH
notes: Pex15, S. cerevisiae W303, cytosolic domain residues 1-327; also called Pex15 cytosolic portion; source: E. coli BL21*, purified (Ni-NTA, Superdex 200); not shown: His, C-terminal, cleaved
As for B2, the binding entry (in the assay with His-Pex6 (S. cerevisiae) [3]; in assay [4]) was “binds” in each case.

B3: Pex15 1-309 (domain or fragment, UniProt Q08215 1-309)
chain: MAASEIMNNLPMHSLDSSLRDLLNDDLFIESDESTKSVNDQRSEVFQECVNLFIKRDIKDCLEKMSEVGFIDITVFKSNPMILDLFVSACDIMPSFTKLGLTLQSEILNIFTLDTPQCIETRKIILGDLSKLLVINKFFRCCIKVIQFNLTDHTEQEEKTLELESIMSDFIFVYITKMRTTIDVVGLQELIEIFIFQVKVKLHHKKPSPNMYWALCKTLPKLSPTLKGLYLSKDVSIEDAILNSIDNKIQKDKAKSKGKQRGVKQKIHHFHEPMLHNSSEEQVKVEDAFNQRTSTDSRLQSTGTAPRKK
Regarding B3, the binding result in assay [5] is listed as “binds”.

B4: His-Pex1-FLAG (protein, UniProt P24004 1-1043)
chain: MTTTKRLKFENLRIQFSNAIVGNFLRLPHSIINVLESTNYAIQEFGIAVHSHNSDIPIVHLGWDGHDSGSSENVVLINPVLATVYDLNQKSPLVDLYIQRYDHTHLATEVYVTPETSDDWEIIDANAMRFQNGEILHQTRIVTPGETLICYLEGIVTKFKIDRVEPSMKSARITDGSLVVVAPKVNKTRLVKAEYGHSNKTILKNGAIQLLKKVILRSTVCKMDFPKDNLFVVYISDGAQLPSQKGYASIVKCSLRQSKKSDSDNKSVGIPSKKIGVFIKCDSQIPENHIALSSHLWDAFFTHPMNGAKIKLEFLQMNQANIISGRNATVNIKYFGKDVPTKSGDQYSKLLGGSLLTNNLILPTEQIIIEIKKGESEQQLCNLNEISNESVQWKVTQMGKEEVKDIIERHLPKHYHVKETGEVSRTSKDEDDFITVNSIKKEMVNYLTSPIIATPAIILDGKQGIGKTRLLKELINEVEKDHHIFVKYADCETLHETSNLDKTQKLIMEWCSFCYWYGPSLIVLDNVEALFGKPQANDGDPSNNGQWDNASKLLNFFINQVTKIFNKDNKRIRVLFSGKQKTQINPLLFDKHFVSETWSLRAPDKHARAKLLEYFFSKNQIMKLNRDLQFSDLSLETEGFSPLDLEIFTEKIFYDLQLERDCDNVVTRELFSKSLSAFTPSALRGVKLTKETNIKWGDIGALANAKDVLLETLEWPTKYEPIFVNCPLRLRSGILLYGYPGCGKTLLASAVAQQCGLNFISVKGPEILNKFIGASEQNIRELFERAQSVKPCILFFDEFDSIAPKRGHDSTGVTDRVVNQLLTQMDGAEGLDGVYILAATSRPDLIDSALLRPGRLDKSVICNIPTESERLDILQAIVNSKDKDTGQKKFALEKNADLKLIAEKTAGFSGADLQGLCYNAYLKSVHRWLSAADQSEVVPGNDNIEYFSINEHGRREENRLRLKTLLQQDVVHETKTSTSAASELTAVVTINDLLEACQETKPSISTSELVKLRGIYDRFQKDRNGEMPNGENSIDIGSRLSLM
Consider B4, for which, in assay [6], the binding entry is reported as “no binding (tested: 0.5 uM)”.

B5: Pex1-FLAG (protein, UniProt P24004 1-1043)
chain: MTTTKRLKFENLRIQFSNAIVGNFLRLPHSIINVLESTNYAIQEFGIAVHSHNSDIPIVHLGWDGHDSGSSENVVLINPVLATVYDLNQKSPLVDLYIQRYDHTHLATEVYVTPETSDDWEIIDANAMRFQNGEILHQTRIVTPGETLICYLEGIVTKFKIDRVEPSMKSARITDGSLVVVAPKVNKTRLVKAEYGHSNKTILKNGAIQLLKKVILRSTVCKMDFPKDNLFVVYISDGAQLPSQKGYASIVKCSLRQSKKSDSDNKSVGIPSKKIGVFIKCDSQIPENHIALSSHLWDAFFTHPMNGAKIKLEFLQMNQANIISGRNATVNIKYFGKDVPTKSGDQYSKLLGGSLLTNNLILPTEQIIIEIKKGESEQQLCNLNEISNESVQWKVTQMGKEEVKDIIERHLPKHYHVKETGEVSRTSKDEDDFITVNSIKKEMVNYLTSPIIATPAIILDGKQGIGKTRLLKELINEVEKDHHIFVKYADCETLHETSNLDKTQKLIMEWCSFCYWYGPSLIVLDNVEALFGKPQANDGDPSNNGQWDNASKLLNFFINQVTKIFNKDNKRIRVLFSGKQKTQINPLLFDKHFVSETWSLRAPDKHARAKLLEYFFSKNQIMKLNRDLQFSDLSLETEGFSPLDLEIFTEKIFYDLQLERDCDNVVTRELFSKSLSAFTPSALRGVKLTKETNIKWGDIGALANAKDVLLETLEWPTKYEPIFVNCPLRLRSGILLYGYPGCGKTLLASAVAQQCGLNFISVKGPEILNKFIGASEQNIRELFERAQSVKPCILFFDEFDSIAPKRGHDSTGVTDRVVNQLLTQMDGAEGLDGVYILAATSRPDLIDSALLRPGRLDKSVICNIPTESERLDILQAIVNSKDKDTGQKKFALEKNADLKLIAEKTAGFSGADLQGLCYNAYLKSVHRWLSAADQSEVVPGNDNIEYFSINEHGRREENRLRLKTLLQQDVVHETKTSTSAASELTAVVTINDLLEACQETKPSISTSELVKLRGIYDRFQKDRNGEMPNGENSIDIGSRLSLM
In the case of B5, the binding result with His-Pex6 (S. cerevisiae) [7] is listed as “binds”.
